Binding data for 4 molecules are collected here from article PMC9266425.

T1: 9Myc-tagged Dcp2 (S. cerevisiae) (UniProt P53550)
T1 sequence: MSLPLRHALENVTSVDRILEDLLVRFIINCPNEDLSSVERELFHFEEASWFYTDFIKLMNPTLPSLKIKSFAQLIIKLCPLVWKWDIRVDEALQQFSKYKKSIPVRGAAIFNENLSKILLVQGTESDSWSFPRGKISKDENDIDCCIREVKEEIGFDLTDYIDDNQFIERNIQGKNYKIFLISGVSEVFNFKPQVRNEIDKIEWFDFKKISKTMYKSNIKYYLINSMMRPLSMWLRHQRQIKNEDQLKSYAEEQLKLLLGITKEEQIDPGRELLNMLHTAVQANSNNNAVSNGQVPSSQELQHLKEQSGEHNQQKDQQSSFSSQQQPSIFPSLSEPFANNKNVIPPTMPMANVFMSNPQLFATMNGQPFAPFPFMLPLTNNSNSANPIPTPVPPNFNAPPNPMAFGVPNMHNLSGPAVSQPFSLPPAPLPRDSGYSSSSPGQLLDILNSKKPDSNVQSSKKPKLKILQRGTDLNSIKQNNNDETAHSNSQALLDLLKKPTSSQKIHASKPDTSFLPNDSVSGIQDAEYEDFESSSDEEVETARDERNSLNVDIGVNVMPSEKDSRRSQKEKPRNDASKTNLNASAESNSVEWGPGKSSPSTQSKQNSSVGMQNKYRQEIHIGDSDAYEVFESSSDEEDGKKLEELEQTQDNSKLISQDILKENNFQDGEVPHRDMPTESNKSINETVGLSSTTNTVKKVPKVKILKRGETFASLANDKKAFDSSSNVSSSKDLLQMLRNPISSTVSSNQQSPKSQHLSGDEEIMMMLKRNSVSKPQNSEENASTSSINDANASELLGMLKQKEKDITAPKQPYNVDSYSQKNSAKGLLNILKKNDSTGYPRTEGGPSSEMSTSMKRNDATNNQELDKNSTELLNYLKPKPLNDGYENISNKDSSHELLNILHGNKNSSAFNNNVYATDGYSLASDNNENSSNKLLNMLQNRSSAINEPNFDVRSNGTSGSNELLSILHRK

B1: Nst1CTDΔPD (domain or fragment, UniProt P53935)
chain: ELGPSVLAATLSSCFSSQSKDTSLDTDSIYEDEDEEDYDDYSEYAEDSEEVSEYEGIEAVEKPEHDEKSNGIRETLHLSYDHDHKRQNHPHHHYHSTSTHSEDELSEEEYISDIELPHDPHKHFHRDDDILDGDEDEPEEEDENEGDDEEDTYDSGLDETDRLEEGRKLIQIAITKLLQSRIMASYHEKQADNNRLKLLQELQKEKEEEERQRLIAEDALRKQKLNEEQTSANILSAKPFTENGVGNPVSSQSHPNMTNYQEDNSCSINDEILKMVNSVAASKPVSPTGFNVHDLLLPSTNNQMPAMEQSHLPQPGNQNNHFGTTTIPNALDLATKSSLQTENNYLMNSQTLENTSLLMHNNSSPTKLLPNDFGLSSWGGLTNTMSINPTCKPPVIQTSEMESQAHKSSPQATMPSFGLPNGGTHRKSFTDELNTLTSMLSSSGFADTSLSSSGFPPSQRSVWNDQKSSFSGPSTAGNFNNSSIQSGMLLAPTLGSVESFPNRTSIWDSSTTPMMNKSELSGRNITSTAQDSPAFMASNIWSSNSQYNSPYLTSNVLQSPQISSGVDESHILDSIYNTYLAISPQDSLNPYIAIGTLFQNLVGLNLDYSTFINKLISMQGAYNCEFFTDNNGSITHVRFARQTPAGHSKGLLNQLFSGLNDPTATPFTSRPHTSTRASFPIASSTTQTS
B2: Nst1CTD (C-terminal Nst1 residues 430-1240) (domain or fragment, UniProt P53935 430-1240)
chain: ELGPSVLAATLSSCFSSQSKDTSLDTDSIYEDEDEEDYDDYSEYAEDSEEVSEYEGIEAVEKPEHDEKSNGIRETLHLSYDHDHKRQNHPHHHYHSTSTHSEDELSEEEYISDIELPHDPHKHFHRDDDILDGDEDEPEEEDENEGDDEEDTYDSGLDETDRLEEGRKLIQIAITKLLQSRIMASYHEKQADNNRLKLLQELEEEKRKKREKEEKKQKKREKEKEKKRLQQLAKEEEKRKREEEKERLKKELEEREMRRREAQRKKVEEAKRKKDEERKRRLEEQQRREEMQEKQRKQKEELKRKREEEKKRIREQKRLEQEKLQKEKEEEERQRLIAEDALRKQKLNEEQTSANILSAKPFTENGVGNPVSSQSHPNMTNYQEDNSCSINDEILKMVNSVAASKPVSPTGFNVHDLLLPSTNNQMPAMEQSHLPQPGNQNNHFGTTTIPNALDLATKSSLQTENNYLMNSQTLENTSLLMHNNSSPTKLLPNDFGLSSWGGLTNTMSINPTCKPPVIQTSEMESQAHKSSPQATMPSFGLPNGGTHRKSFTDELNTLTSMLSSSGFADTSLSSSGFPPSQRSVWNDQKSSFSGPSTAGNFNNSSIQSGMLLAPTLGSVESFPNRTSIWDSSTTPMMNKSELSGRNITSTAQDSPAFMASNIWSSNSQYNSPYLTSNVLQSPQISSGVDESHILDSIYNTYLAISPQDSLNPYIAIGTLFQNLVGLNLDYSTFINKLISMQGAYNCEFFTDNNGSITHVRFARQTPAGHSKGLLNQLFSGLNDPTATPFTSRPHTSTRASFPIASSTTQTS
B3: overexpressed full-length Nst1 (protein, UniProt P53935 1-1240)
chain: MPPNSKSKRRKNKSKQHNKKNGNSDPEQSINPTQLVPRMEPELYHTESDYPTSRVIKRAPNGDVIVEPINTDDDKKERTANLTHNKDSMDSASSLAFTLDSHWESLSPEEKKTILRIEKEEVFNVIRNYQDDHSCSCSVCGRRHLAMDQEMERIYNTLYAMDKDKDPETNPIKFHLGIIKELQISKNQQQNDLSSTKGEVVKNFLSSSTVGSLKEEVLHFKQKQLSKQEQAHNETADNTSLLEENLNNIHINKTSSEISANFNSVSDEELQQKYSNFTKTFISSHPKIAEEYVQKMMMYPNIRALTDDLMNSNGQGFLNAIEDFVRDGQIQASKKDDSITEDEASSTDLTDPKEFTTMLHSGKPLTEDEYADLQRNIAERMTNAYDTASKKFKDVSQLEKELFTRFMSGRDKKSFRELIIQSFKNKFDGELGPSVLAATLSSCFSSQSKDTSLDTDSIYEDEDEEDYDDYSEYAEDSEEVSEYEGIEAVEKPEHDEKSNGIRETLHLSYDHDHKRQNHPHHHYHSTSTHSEDELSEEEYISDIELPHDPHKHFHRDDDILDGDEDEPEEEDENEGDDEEDTYDSGLDETDRLEEGRKLIQIAITKLLQSRIMASYHEKQADNNRLKLLQELEEEKRKKREKEEKKQKKREKEKEKKRLQQLAKEEEKRKREEEKERLKKELEEREMRRREAQRKKVEEAKRKKDEERKRRLEEQQRREEMQEKQRKQKEELKRKREEEKKRIREQKRLEQEKLQKEKEEEERQRLIAEDALRKQKLNEEQTSANILSAKPFTENGVGNPVSSQSHPNMTNYQEDNSCSINDEILKMVNSVAASKPVSPTGFNVHDLLLPSTNNQMPAMEQSHLPQPGNQNNHFGTTTIPNALDLATKSSLQTENNYLMNSQTLENTSLLMHNNSSPTKLLPNDFGLSSWGGLTNTMSINPTCKPPVIQTSEMESQAHKSSPQATMPSFGLPNGGTHRKSFTDELNTLTSMLSSSGFADTSLSSSGFPPSQRSVWNDQKSSFSGPSTAGNFNNSSIQSGMLLAPTLGSVESFPNRTSIWDSSTTPMMNKSELSGRNITSTAQDSPAFMASNIWSSNSQYNSPYLTSNVLQSPQISSGVDESHILDSIYNTYLAISPQDSLNPYIAIGTLFQNLVGLNLDYSTFINKLISMQGAYNCEFFTDNNGSITHVRFARQTPAGHSKGLLNQLFSGLNDPTATPFTSRPHTSTRASFPIASSTTQTS
B4: Nst1ΔPD (residues 1-630 and 753-1240) (protein, UniProt P53935)
chain: MPPNSKSKRRKNKSKQHNKKNGNSDPEQSINPTQLVPRMEPELYHTESDYPTSRVIKRAPNGDVIVEPINTDDDKKERTANLTHNKDSMDSASSLAFTLDSHWESLSPEEKKTILRIEKEEVFNVIRNYQDDHSCSCSVCGRRHLAMDQEMERIYNTLYAMDKDKDPETNPIKFHLGIIKELQISKNQQQNDLSSTKGEVVKNFLSSSTVGSLKEEVLHFKQKQLSKQEQAHNETADNTSLLEENLNNIHINKTSSEISANFNSVSDEELQQKYSNFTKTFISSHPKIAEEYVQKMMMYPNIRALTDDLMNSNGQGFLNAIEDFVRDGQIQASKKDDSITEDEASSTDLTDPKEFTTMLHSGKPLTEDEYADLQRNIAERMTNAYDTASKKFKDVSQLEKELFTRFMSGRDKKSFRELIIQSFKNKFDGELGPSVLAATLSSCFSSQSKDTSLDTDSIYEDEDEEDYDDYSEYAEDSEEVSEYEGIEAVEKPEHDEKSNGIRETLHLSYDHDHKRQNHPHHHYHSTSTHSEDELSEEEYISDIELPHDPHKHFHRDDDILDGDEDEPEEEDENEGDDEEDTYDSGLDETDRLEEGRKLIQIAITKLLQSRIMASYHEKQADNNRLKLLQELQKEKEEEERQRLIAEDALRKQKLNEEQTSANILSAKPFTENGVGNPVSSQSHPNMTNYQEDNSCSINDEILKMVNSVAASKPVSPTGFNVHDLLLPSTNNQMPAMEQSHLPQPGNQNNHFGTTTIPNALDLATKSSLQTENNYLMNSQTLENTSLLMHNNSSPTKLLPNDFGLSSWGGLTNTMSINPTCKPPVIQTSEMESQAHKSSPQATMPSFGLPNGGTHRKSFTDELNTLTSMLSSSGFADTSLSSSGFPPSQRSVWNDQKSSFSGPSTAGNFNNSSIQSGMLLAPTLGSVESFPNRTSIWDSSTTPMMNKSELSGRNITSTAQDSPAFMASNIWSSNSQYNSPYLTSNVLQSPQISSGVDESHILDSIYNTYLAISPQDSLNPYIAIGTLFQNLVGLNLDYSTFINKLISMQGAYNCEFFTDNNGSITHVRFARQTPAGHSKGLLNQLFSGLNDPTATPFTSRPHTSTRASFPIASSTTQTS

These are yes or no findings as the source states them, for the method shown. Binding seen in cells or lysates may run through a third protein. Tags and fused reporters may be left off the sequences shown.

The target of the assay is T1, 9Myc-tagged Dcp2 (S. cerevisiae). Put plainly: co-IP; overexpressed Nst1 and Nst1 domain deletion mutants with 9Myc-tagged Dcp2 in S. cerevisiae.
Take B1: the binding result was “no binding”. The result for B2 reads “no binding”; that for B3, “no binding”; that for B4, “no binding”.
